Test results taken from article PMC12824264.

Assays:
[1] = biological target: T1, BMP9 growth factor domain (GFD) dimer (human) (UniProt Q9UK05); test: SEC; analytical gel filtration; pro:BMP9 or pro:BMP10 pre-mixed with 0.3-fold sENG(M) or sENG(D); both purified
T1 sequence: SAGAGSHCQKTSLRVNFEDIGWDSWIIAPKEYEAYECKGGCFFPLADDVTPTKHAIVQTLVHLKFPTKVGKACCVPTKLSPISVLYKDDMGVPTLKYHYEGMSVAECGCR

[2] = biological target: T1, BMP9 growth factor domain (GFD) dimer (human); test: native gel or EMSA; pro:BMP9 or pro:BMP10 pre-mixed with sENG(D), sENG(M), BMPRII ECD or ActRIIB ECD at stated molar ratios (from 0.3:1) in TBS, 8 ul, 30 min at room temperature; 10% native PAGE at 4 C; bands cut out and re-run on non-reducing SDS-PAGE; both purified
[3] = biological target: T2, BMP10 growth factor domain (GFD) dimer (human) (UniProt O95393); test: SEC; analytical gel filtration; pro:BMP9 or pro:BMP10 pre-mixed with 0.3-fold sENG(M) or sENG(D); both purified
T2 sequence: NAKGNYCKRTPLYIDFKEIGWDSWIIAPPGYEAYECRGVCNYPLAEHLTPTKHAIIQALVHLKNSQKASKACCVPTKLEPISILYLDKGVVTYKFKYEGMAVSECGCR

[4] = biological target: T2, BMP10 growth factor domain (GFD) dimer (human); test: native gel or EMSA; pro:BMP9 or pro:BMP10 pre-mixed with sENG(D), sENG(M), BMPRII ECD or ActRIIB ECD at stated molar ratios (from 0.3:1) in TBS, 8 ul, 30 min at room temperature; 10% native PAGE at 4 C; bands cut out and re-run on non-reducing SDS-PAGE; both purified

binding [1] | binding [2] | binding [3] | binding [4] | Substance
binds | binds | – | – | BMP9 prodomain (human) (domain or fragment)
– | – | binds | binds | BMP10 prodomain (human) (domain or fragment)

These are yes or no findings as the source states them, for the method shown. Binding calls can cover weak binding; strength is not graded here.
